Results are given in words; binding and its absence hold for the method and conditions named. In cells and extracts the contact can be indirect. For some assays here: Binding can be weak; no strength is given.
Assays:
[1] = target: chimpanzee LRRC37B-HA (chimpanzee); assay: co-IP
[2] = target: macaque LRRC37B-HA (macaque); assay: co-IP

B1: FGF13A (ligand, UniProt Q92913-1 1-245)
chain: MAAAIASSLIRQKRQAREREKSNACKCVSSPSKGKTSCDKNKLNVFSRVKLFGSKKRRRRRPEPQLKGIVTKLYSRQGYHLQLQADGTIDGTKDEDSTYTLFNLIPVGLRVVAIQGVQTKLYLAMNSEGYLYTSELFTPECKFKESVFENYYVTYSSMIYRQQQSGRGWYLGLNKEGEIMKGNHVKKNKPAAHFLPKPLKVAMYKEPSLHDLTEFSRSGSGTPTKSRSVSGVLNGGKSMSHNEST
[1]
  binding: binds
[2]
  binding: no binding
